Measured values published in publication PMC11982563.

Biological target: T1, ANO1-YFP (mouse) (UniProt Q8BHY3)
T1 sequence: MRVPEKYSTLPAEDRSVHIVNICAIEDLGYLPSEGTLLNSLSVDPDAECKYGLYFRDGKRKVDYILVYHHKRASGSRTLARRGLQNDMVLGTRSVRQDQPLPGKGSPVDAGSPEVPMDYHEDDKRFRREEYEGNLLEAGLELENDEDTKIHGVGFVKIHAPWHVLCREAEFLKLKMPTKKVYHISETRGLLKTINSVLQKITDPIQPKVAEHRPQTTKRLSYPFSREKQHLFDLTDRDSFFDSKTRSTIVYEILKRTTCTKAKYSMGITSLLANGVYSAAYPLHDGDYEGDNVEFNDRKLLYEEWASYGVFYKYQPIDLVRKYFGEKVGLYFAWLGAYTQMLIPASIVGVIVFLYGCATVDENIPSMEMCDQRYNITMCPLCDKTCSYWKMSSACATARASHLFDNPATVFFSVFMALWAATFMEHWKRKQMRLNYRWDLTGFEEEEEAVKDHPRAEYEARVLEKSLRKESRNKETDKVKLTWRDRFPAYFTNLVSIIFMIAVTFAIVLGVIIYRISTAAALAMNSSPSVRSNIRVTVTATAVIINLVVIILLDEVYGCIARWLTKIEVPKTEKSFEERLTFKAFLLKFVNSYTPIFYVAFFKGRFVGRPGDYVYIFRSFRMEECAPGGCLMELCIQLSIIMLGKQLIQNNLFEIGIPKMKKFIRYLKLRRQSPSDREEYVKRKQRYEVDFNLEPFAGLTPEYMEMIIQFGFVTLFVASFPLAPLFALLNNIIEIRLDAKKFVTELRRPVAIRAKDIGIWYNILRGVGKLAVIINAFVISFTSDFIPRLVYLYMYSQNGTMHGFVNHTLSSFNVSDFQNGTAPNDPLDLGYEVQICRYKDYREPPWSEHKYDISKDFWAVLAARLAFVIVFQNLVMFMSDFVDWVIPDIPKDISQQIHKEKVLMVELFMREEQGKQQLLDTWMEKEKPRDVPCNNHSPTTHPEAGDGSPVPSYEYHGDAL
Assay: FRET or BRET; fluorescently tagged proteins co-expressed in HEK293 cells on glass-bottom dishes, live cells in bath solution; imaged before and after 2.5 uM forskolin + 50 uM IBMX; also with CPA, siRNA of ACs and AKAPs, STIM1-/- cells and co-expressed VAPA, E-Syt1, E-Syt2, AC8 or AKAP5

PKA-RII
binding: binds

These are yes or no findings as the source states them, for the method shown. Binding seen in cells or lysates may run through a third protein. Binding can be weak; no strength is given. Where a sequence is shown, tags or fusion partners need not be part of it.
